Reference: patent US5998362A, “Conjugates useful in the treatment of prostate cancer” (priority 1997, dated 1999)
At least one peptide structure holds a part that was inferred or is arguable (an end, a ring closure or a residue). Where a SMILES comes first, the peptide text is derived from it. [ ]: non-standard residue; d: D form. The star is where a group is joined. Doxorubicin(3'-N) = COc1cccc2c1C(=O)c1c(O)c3c(c(O)c1C2=O)C[C@@](O)(C(=O)CO)C[C@@H]3O[C@H]1C[C@H](N*)[C@H](O)[C@H](C)O1; Decanoyl(3,6,9-trioxa) = COCCOCCOCC(=O)*; Chg = N[C@H](C(=O)O)C1CCCCC1

System: DuPRO cells
Assay: In vitro cytotoxicity of peptidyl derivatives of doxorubicin, Alamar Blue assay, DuPRO
Type: cell-based
Settings: 3 days incubation, read-out: DuPRO cell kill EC 50 (μM), value in parentheses
Method: The cytotoxicities of the cleaveable oligopeptide-doxorubicin conjugates, prepared as described in Examples 3-6, against a line of cells which is known to be killed by unmodified doxorubicin was assessed with an Alamar Blue assay. Specifically, cell cultures of LNCap prostate tumor cells or DuPRO cells in 96 well plates was diluted with medium containing various concentrations of a given conjugate (final plate well volume of 200 μl). The cells were incubated for 3 days at 37° C., 20 μl of Alamar Blue is added to the assay well. The cells were further incubated and the assay plates were read on a EL-310 ELISA reader at the dual wavelengths of 570 and 600 nm at 4 and 7 hours after addition of Alamar Blue. Relative percentage viability at the various concentration of conjugate tested was then calculated versus control (no conjugate) cultures. If no salt is indicated, the free conjugate was tested.

COCCOCCOCC(=O)N[C@@H](C)C(=O)N[C@@H](CO)C(=O)N[C@H](C(=O)N[C@@H](CCC(N)=O)C(=O)N[C@@H](CO)C(=O)N[C@@H](CC(C)C)C(=O)N[C@H]1C[C@H](O[C@H]2C[C@](O)(C(=O)CO)Cc3c(O)c4c(c(O)c32)C(=O)c2c(OC)cccc2C4=O)O[C@@H](C)[C@H]1O)C1CCCCC1 [PEG(2)-ASChgQ-SL-DOX(3'), PEG(2)-AlaSerChgGln-SerLeu-DOX (3')] ({Decanoyl(3,6,9-trioxa)}-AS[Chg]QSL-{Doxorubicin(3'-N)})
EC50: 100 µM
